# Measured values as given in PubChem BioAssay AID504648 (National Center for Advancing Translational Sciences (NCATS), 2011).
# Screen size: about 390,000 compounds; about 610 (0.16%) were called active. Inconclusive results, whose numbers are uncertain, are shown with a selection of clear calls. Calls come from the whole dose curve; as a rule, active = well fitted inhibition curve with a large enough effect; inconclusive = small, poorly fitted or top-dose-only effect, or effect the other way, or another doubt; inactive = no such curve, though single readings can be large or run the other way. Potencies of inconclusive entries are doubtful fits and often do not repeat.
# Test: Nrf2 qHTS screen for inhibitors: counterscreen for cytotoxicity
# Settings: A549 ARE-Fluc cells, CellTiter-Fluor viability, 18-24 h; series mostly up to 46 µM
# Outline: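 A549 ARE-Fluc cells in 5% FBS OPTI-MEM, 5000 cells/well, rested 2 h then exposed to compounds in concentration-response for 18-24 h at 37 °C. Viability by CellTiter-Fluor fluorescence (Ex 405/Em 525) after 30 min; luciferase luminescence (BugLite, 15 min, RT) read afterwards.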
# Potency is the fitted concentration of half-maximal effect.
row,Structure (SMILES),Potency
1,Cc1sc2ncn(CC(=O)NCCCC(=O)Nc3ccc(C(C)C)cc3)c(=O)c2c1C,"inconclusive: 16.4 µM [falling, single point]"
2,O=C(OCc1ccco1)c1ccc(S(=O)(=O)N2CCCCC2)cc1,inactive
3,COc1cccc(-c2ccc3ncnc(NCc4cc(C)cs4)c3c2)c1,inactive
4,COC(=O)c1c(NC(=O)CN2CCCC(C)C2)c2c(C)cccc2n1C (configuration not stated),"inconclusive: 13 µM [falling, partial curve, poor fit]"
5,CCCOc1ccc(C(=O)N(Cc2cccs2)C2CCS(=O)(=O)C2)cc1 (configuration not stated),"inconclusive: 29.1 µM [activator, partial curve, poor fit]"
6,O=C(CCc1ccccc1)Nc1ccc2c(c1)OCCO2,inactive
7,COc1ccc(-c2cc(-c3ccc(OC)c(OC)c3)n[nH]2)c(O)c1,"inconclusive: 20.6 µM [activator, partial curve, poor fit]"
8,Clc1ccc2c(c1)C(C1=NCCN1)c1ccccc1CS2 (configuration not stated),"inconclusive: 1.64 µM [falling, partial curve]"
9,C=CCn1cc(C(=O)NCc2ccco2)c(=O)c2cc(S(=O)(=O)N3CCCCCC3)ccc21,inactive
10,O=C(NCC1CCCO1)C(c1cccs1)N(Cc1cccs1)C(=O)c1ccc(-c2ccccc2)[nH]1 (configuration not stated),"inconclusive: 29.1 µM [falling, partial curve, poor fit]"
11,COc1ccc(-c2ccnc3c(C(=O)O)cnn23)cc1,inactive
12,CCn1nc(C(=O)NNC(=O)c2ccc(OC(F)F)cc2)c2ccccc2c1=O,inactive
13,C/C=C(/C)C(=O)OC1CC(C)(C)C[C@H]2C3=CC[C@@H]4[C@@]5(C)CCC(O[C@@H]6O[C@@H](C(=O)O)[C@@H](O)C(O[C@@H]7OC[C@H](O)[C@@H](O)[C@@H]7O[C@@H]7OC(CO)C(O)[C@@H](O)[C@@H]7O)C6O[C@@H]6OC(CO)C(O)C(O)C6O)[C@@](C)(CO)[C@@H]5CC[C@]4(C)[C@]3(C)CC(O)[C@@]12CO (some centres not stated),"inconclusive: 20.6 µM [falling, single point]"
14,CC(C)CNS(=O)(=O)c1cc(C(=O)N2CCOCC2)c(Cl)cc1Cl,"inconclusive: 23.1 µM [activator, single point]"
15,COc1ccc(-c2coc3cc(OC(C)=O)ccc3c2=S)cc1,inactive
16,COc1cccc(/C=C(\C#N)c2nc3ccc(C)cc3[nH]2)c1,inactive
17,COc1ccc(N2CCN(C(CNC(=O)C(=O)NCC(OC)OC)c3ccco3)CC2)cc1 (configuration not stated),inactive
18,CC(C)c1ccc(C(O)P(=O)(OC2CCCCC2)OC2CCCCC2)cc1 (configuration not stated),"inconclusive: 20.6 µM [falling, partial curve, poor fit]"
19,O=C(O)c1cc(N/N=C/c2ccc(N3CCOCC3)s2)ccc1Cl,"inconclusive: 32.6 µM [falling, partial curve, poor fit]"
20,COc1ccc(C)cc1S(=O)(=O)N(CC(=O)NCc1ccc(Cl)cc1)Cc1ccccc1,"inconclusive: 29.1 µM [falling, single point]"
21,O=C(CSC1=Nc2ccccc2C2=NC(CCC(=O)NC3CCCCC3)C(=O)N12)Nc1cccc(Cl)c1 (configuration not stated),"inconclusive: 23.1 µM [falling, partial curve, poor fit]"

row,Structure (SMILES),Potency
1,Cc1cc(NC(=O)/C(C#N)=C/c2ccc(-c3cccc(C(F)(F)F)c3)o2)n(-c2ccccc2)n1,inactive
2,Brc1ccccc1-c1nnc(COc2ncnc3c2cnn3-c2ccccc2)o1,"inconclusive: 18.4 µM [falling, partial curve, poor fit]"
3,O=C(O)c1cccc(-n2cccc2/C=C/[N+](=O)[O-])c1,inactive
4,COc1ccc(OC)c(N(CC(=O)NCC2CCCO2)S(=O)(=O)c2ccccc2)c1 (configuration not stated),inactive
5,COc1cccc(NC(=O)[C@H](CC(C)C)NC(=O)N2CCn3c2nc2ccccc23)c1,"inconclusive: 20.6 µM [falling, partial curve, poor fit]"
6,CC(C)(C)NC(=O)NC(=O)COC(=O)CNS(=O)(=O)/C=C/c1ccccc1,"inconclusive: 14.6 µM [falling, partial curve, poor fit]"
7,O=C(N/N=C/c1sc2ccccc2c1O)c1ccccc1,"inconclusive: 25.9 µM [falling, single point]"
8,CNc1nc2c(N)ncnc2n1[C@H]1O[C@@H](CO)[C@H](O)[C@@H]1O,"inconclusive: 23.1 µM [falling, single point]"
9,COc1ccc(/C=C/C(=O)Oc2cccc(/C=N/NC(=O)COc3c(C)cccc3C)c2)cc1,"inconclusive: 32.6 µM [falling, single point]"
10,COc1ccc2nc(C)cc(Nc3ccc(N4CCN(C)CC4)cc3)c2c1,"inconclusive: 29.1 µM [falling, single point]"
11,O=C1c2ccccc2NC(c2ccccc2O)N1Cc1ccco1 (configuration not stated),inactive
12,CCOc1cc(C(=O)Nc2ccc(C(=O)NCCN(CC)CC)cc2)ccc1OCC(=O)N1CCOCC1,inactive
13,CC(C)S(=O)(=O)c1csc(NC(=O)Nc2ccc(Cl)cc2)c1Cl,"inconclusive: 16.4 µM [falling, partial curve, poor fit]"
14,CSc1ccc(C2c3c(oc4ccc(F)cc4c3=O)C(=O)N2c2ccc(C)cn2)cc1 (configuration not stated),inactive
15,O=S(=O)(c1ccc(Br)s1)N1CCN(CCc2ccccc2)CC1,"inconclusive: 32.6 µM [falling, partial curve, poor fit]"
16,CCCCN(CC)C(=O)CSc1nc2ccccc2c(=O)n1CC1COc2ccccc2O1 (configuration not stated),"inconclusive: 29.1 µM [falling, single point]"
17,Cc1ccc(S(=O)(=O)N2CCN(C3CC4CCC3C4)CC2)cc1 (configuration not stated),"inconclusive: 16.4 µM [falling, single point]"
18,CC1=C(C(=O)Nc2ccc(C)c(C)c2)C2(CCCCCC2)OC1=O,inactive
19,CC(=O)N1CCN(C(=O)c2ccc(OC3CCN(Cc4ccccn4)CC3)cc2)CC1,inactive
20,C=C(C)c1nc(Oc2ccccc2)nc(Oc2ccccc2)n1,inactive
21,O=C(c1ccc(Cl)cc1)N1CCC(O)(CSc2ccc(Cl)cc2)CC1,"inconclusive: 20.6 µM [falling, partial curve, poor fit]"

# Rewritten with tabs: two of the compounds above
row	Structure (SMILES)	Potency
4	COc1ccc(OC)c(N(CC(=O)NCC2CCCO2)S(=O)(=O)c2ccccc2)c1 (configuration not stated)	inactive
5	COc1cccc(NC(=O)[C@H](CC(C)C)NC(=O)N2CCn3c2nc2ccccc23)c1	inconclusive: 20.6 µM [falling, partial curve, poor fit]
